Experimental data reported in patent US6652860B1, “Peptide, apoEp 1.B, compositions and uses thereof” (University of Western Ontario, priority 1997, dated 2003).
At least one peptide structure holds a part that was inferred or is arguable (an end, a ring closure or a residue). Where no end group is shown, it is not given here.

Legend:
[1] = system: iliofemoral artery of the rat; test: Balloon angioplasty injury model, plaque development in iliofemoral artery; assay type: in vivo
Protocol: To investigate the role of apoEp1.B peptide in inflammation, particularly in response to arterial injury, a balloon angioplasty injury model which has been well characterized by Dr. Alex Lucas (Lucas et al. 1996 Circ. 94:2898-900) was used. 300 μg/ml of apoEp1 or apoEp1.B peptide were infused intra-arterially immediately prior to angioplasty at the site of injury in the iliofemoral artery of the rat. Positive control SERP-1 and negative control saline alone were also used. The rats were monitored carefully and euthanized 6 weeks after treatment and iliofemoral arteries were assessed for plaque development by histochemistry.

[2] = system: NOD mice; test: Protection of NOD mice from spontaneous diabetes by footpad immunization; assay type: in vivo
[3] = system: NOD.SCID mice; test: Protection of NOD.SCID mice from adoptively transferred diabetes; assay type: in vivo
[4] = system: BALB/c unprimed splenocytes; test: ConA mitogen response of apoEp1.B treated splenocytes (3H uptake); assay type: cell-based, mice; details: 100μg/ml for 24 hours, then ConA 12 hours
[5] = system: NOD lymph node cells; test: Cytokines secreted by lymph node cells after peptide immunization (ELISA); assay type: in vivo, mice; details: NOD lymph node cells cultured 48 hr without challenge
[6] = system: Unprimed splenocytes, enriched spleen monocytes and monocytic PU5-1.8 and J77A4.1 cell lines; test: Dendritic-like cell morphology in vitro; assay type: cell-based, BALB/c mice
Protocol: Unprimed splenocytes, enriched spleen monocytes and monocytic PU5-1.8 and J77A4.1 cell lines from BALB/c mice were incubated with 0, 1, 10, or 100 μg/ml apoEp1.B (239-252) or negative control apoEp1.D (236-249) peptide to assess activity. […] After 24 hr, morphologically these cells appeared less rounded, more granular.

[7] = system: PU5-1.8 cells; test: DC-like surface marker expression on PU5-1.8 cells (FACS); assay type: cell-based, murine
Protocol: (§1) 1×10^6 cells were washed with ice cold PBS and resuspended in 25 μl PBS and incubated with 10 μl normal mouse serum and fluorochrome conjugated anti-mouse D11a, CD11b, CD14, MHC class II, CD95, CD62L, CD62E, B7-1, B7-2 and ICAM-1 Pharmingen, Mississauga, Canada) monoclonal antibodies (mAb's) for 45 minutes on ice. endritic cell markers DEC-205, 33D1, CD11c (N418) unconjugated antibodies were imilarly treated, however, following primary antibody incubation,cells were washed 3 times and a secondary goat anti-rat (for 33D1 and DEC-205 ab's) and goat anti-hamster (for CD11c ab) fluorochrome-conjugated antibody was then added for 45 min on ice. Cells were then washed three times. All samples were resuspended in 300 μl PBS and the fluorescence of stained cells was analyzed on a FACScan flow cytometer (Becton Dickinson, Mountain View, Calif.) and data collected was analyzed using Lysis II (Becton-Dickinson) software.
(§2) Morphologically apoEp1.B-treated cells appeared DC-like. This was confirmed this by FACS analysis. Unprimed BALB/c splenocytes and PU5-1.8 cells were incubated for 24 hr with 100 μg/ml apoEp1.B or control peptide apoEp1.D and then stained for FACS analysis.
To assess whether apoEp1.B-induced phenotypic changes are dose-dependent, 10^5 PU5-1.8 cells were incubated for 20 hr with 0 (medium), 1, 10 or 100 μg/ml apoEp1.B in 24-well plates and were then stained for FACS analysis. 10,000 events were collected. B7-1 marker is shown.
Unprimed B6 and NOD splenocytes were incubated with 100 μg/ml apoEp1.B or apoEp1.D to determine whether apoEp1.B was strain-specific. After 48 hr in culture, cells were stained for FACS analysis. […] Naive spleen cells from apoE deficient (apoE K.O.) mice were also tested to determine whether in vivo production of apoE had any influence on this effect. […] Since human apoEp1.B (HapoEp1.B) (239-252) peptide has a high degree of homology to murine apoEp1.B (^239T to ^239A and 248I to ^248A), species cross-reactivity was tested. […] The cells were then stained for FACS analysis.

[8] = system: splenocytes; test: Surface marker expression on unprimed splenocytes (FACS); assay type: cell-based, mice
Protocol: as §1, §2
There were no changes in the expression of CD16/32 at any time.
Unprimed B6 and NOD splenocytes were incubated with 100 μg/ml apoEp1.B or apoEp1.D to determine whether apoEp1.B was strain-specific. […]

[9] = system: Human monocytic cell line U-937; test: Morphological and phenotypic changes of human monocytic cell line; assay type: cell-based; details: 100 μg/ml, within 24 hr
[10] = system: PEC's; test: Induction of DC-like peritoneal exudate cells after intraperitoneal injection; assay type: in vivo, BALB/c mice; details: i.p. injection, 48 hr
[11] = system: BALB/c naive T cells co-cultured with NOD splenocytes; test: Mixed leukocyte reaction, T cell allostimulatory activity of treated APC's; assay type: cell-based, mice
Protocol: Primary allogeneic MLR was set up with NOD splenocytes as stimulators and nylon wool enriched BALB/c naive T cells as responders. Stimulator cells were pre-incubated for 3 days with different combinations of apoEp1.B, GM-CSF, and PU5-1.8 supernatant containing TNF. Stimulator cells were then treated with mitomycin C (50 μg/ml, 20 min at 37° C.; Sigma) and co-cultured with 4×10^4 responder for 3 days at which time cells were pulsed with 50 μl [^3H]-TdR (0.5 μCi/well) for 24 hr. Cells were harvested (Tomtec) and [^3H]-TdR incorporation was measured on a Microbeta Liquid Scintillation Counter (Wallac). Each bar represents the mean cpm from triplicate cultures.
To measure the T cell allostimulatory or inhibitory ability of these DC's, 4×10^4 enriched BALB/c naive T cells were co-cultured with 40, 400, 4000 and 40,000 mitomycin C-treated NOD splenocytes which had been incubated with various stimualants for 3 d. T cell proliferation was measured following 3 days of co-culture by [^3H]-TdR incorporation. Bars represent the mean of triplicate wells (cpm+/−S.D.). * and ** represent p<0.05 and p<0.001, respectively in 2-way ANOVA's compared to medium alone (nil) controls. […] Upon combining responder T cells with APC, various exogenous factors were added, including 20 μg/ml Con A and 5 μg/ml apoEp1.B. Very little proliferation was detected in wells containing T cells alone or APC alone.

[12] = system: immune cells; test: Activation and differentiation of immune cells; assay type: cell-based
[13] = system: spleen cells, PU5-1.8, J77A1.4 cell lines; test: Proliferation assays ([3H]-TdR incorporation); assay type: cell-based, mice; details: data not shown
[14] = rat, intra-arterial infusion prior to angioplasty, 6 weeks after treatment

Sequence: TQQIRLQAEIFQAR [apoEp1.B, TQQIRLQAEIFQAR]
- plaque detection ([1]; in many of the treated rats): no plaque was detected
- lesion size ([1]; rat, apoEp1.B (500 μg), 6 weeks): reduced lesion size
- Lumen Area (mean +/− S.E.) [1, 14]: 0.156 +/− 0.020
- Plaque Thickness (mean +/− S.E.) [1, 14]: 0.003 +/− 0.003
- Plaque area (mean +/− S.E.) [1, 14]: 0.002 +/− 0.002
- mice remaining diabetes free ([2]; 10 female NOD mice per group, 200 μg/ml in IFA in one footpad, at 10 months): 7 of 10
- disease onset ([2]; NOD mice, peptide/IFA immunization): significantly delayed disease onset
- mice remaining diabetes free ([2]; of 8 female NOD mice, 250 μg in IFA in one footpad, 8 month end date): 8
- islet infiltration ([2]; protected compared to unprotected mice (data not shown)): slightly less islet infiltration
- mice remaining diabetes-free ([3]; NOD.SCID, 10^7 diabetogenic splenocytes, 200 μg/ml, at 9 weeks): 5 of the 10
- disease onset ([3]; adoptively-transferred NOD.Scid mice, peptide/IFA immunization): significantly delayed disease onset
- response to mitogen versus untreated cells [4]: 3 fold
- IFNγ [5]: no change in IFNγ
- IL-2 secretion versus apoEp1.D primed cells [5]: lower levels of IL-2
- IL-4 secretion versus apoEp1.D primed cells [5]: higher levels of IL-4
- cell morphology at 48 hours ([6]; 48 hours): displayed dendritic-like processes
- detachment from plastic plates and aggregation in suspension ([6]; after 2 hr, optimally at 100 μg/ml): started to detach from plastic plates and aggregate in suspension
- Surface expression of CD14, CD11a, CD11b, CD11c, B7-1, B7-2, DEC-205, 33D1, MHC class II, fas, CD40, CD62L and CD43 ([7]; 100 μg/ml, 24 hr, PU5-1.8 cells): increased above background
- optimal concentration for phenotypic changes (B7-1) ([7]; 10^5 PU5-1.8 cells, 20 hr, 0, 1, 10 or 100 μg/ml): 100 µg/mL
- phenotypic changes at 1 μg/ml ([7]; 10^5 PU5-1.8 cells, 20 hr, 1 μg/ml): slight phenotypic changes
- Surface expression of B7-1, B7-2, MHC class II, CD28, CD11a, CD11c and 33D1 ([8]; BALB/c splenocytes, 100 μg/ml, 24 hr): increased above background
- expression of CD16/32 ([8]; splenocytes, at any time): no changes
- morphological and phenotypic changes compared to PU5-1.8 cells [9]: similar, but less profound morphological and phenotypic changes
- cell size and granularity of PEC's [10]: increase in cell size and granularity
- surface expression of DEC-205, 33D1, CD11c, B7-1 and B7-2 on PEC's [10]: increase in surface expression
- T cell allostimulation when peptide added to co-culture ([11]; 5 μg/ml apoEp1.B added with 20 μg/ml Con A): completely abrogated
- APC-T cell stimulation compared to untreated APC's ([11]; 4×10^3 and 4×10^2 APC's): slightly higher level
- induces activation and differentiation of immune cells [12]: can induce the activation and differentiation of immune cells
- cell number in proliferation assays [13]: did not show an overall increase in cell number
